No constants are given. Whether binding was seen depends on the method and setting. Some binding calls cover weakened binding; strength is not graded here.
Target: T1, Selenomethionine-labelled PvuRts1I, Q52612
T1 chain: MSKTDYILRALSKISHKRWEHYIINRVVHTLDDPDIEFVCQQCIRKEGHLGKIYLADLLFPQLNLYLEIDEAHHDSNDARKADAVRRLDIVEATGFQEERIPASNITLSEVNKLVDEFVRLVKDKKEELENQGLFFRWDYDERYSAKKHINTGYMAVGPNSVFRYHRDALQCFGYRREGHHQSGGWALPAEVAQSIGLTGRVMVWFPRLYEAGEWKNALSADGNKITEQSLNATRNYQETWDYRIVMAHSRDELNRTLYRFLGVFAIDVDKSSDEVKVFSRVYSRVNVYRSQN
Assay: crystal structure; Se-PvuRts1I without DNA, sitting drop, 286 K, space group P4(3)2(1)2, 2.9 Å; dimer with a twofold symmetry-related molecule, also identified by PISA; both purified
Conditions: remark: other sources report otherwise

- binding: binds
B1: Selenomethionine-labelled PvuRts1I, Q52612 1-293 (enzyme)
chain: MSKTDYILRALSKISHKRWEHYIINRVVHTLDDPDIEFVCQQCIRKEGHLGKIYLADLLFPQLNLYLEIDEAHHDSNDARKADAVRRLDIVEATGFQEERIPASNITLSEVNKLVDEFVRLVKDKKEELENQGLFFRWDYDERYSAKKHINTGYMAVGPNSVFRYHRDALQCFGYRREGHHQSGGWALPAEVAQSIGLTGRVMVWFPRLYEAGEWKNALSADGNKITEQSLNATRNYQETWDYRIVMAHSRDELNRTLYRFLGVFAIDVDKSSDEVKVFSRVYSRVNVYRSQN
modifications: here or on the partner: selenomethionine in place of methionine; selenomethionine in place of methionine
